Some of the results follow.
Compound: Cc1cc(ccc1-c1ccccc1)C(=O)N1CCCN(CC1)C(=O)CCl [compound 10]
Assay: probe-labelled cysteine peptide fold change vs DMSO (competition) (log2 fold change); higher = less target engagement (more negative = stronger competition)
Conditions: THP-1, incubation time: 4 h
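Further: competitive profiling in live THP-1 cells: cysteine peptides tagged with an iodoacetamide desthiobiotin (IA-DTB) probe, intensity after compound treatment relative to DMSO-treated cells.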

Row | Target | probe-labelled cysteine peptide fold change (10 µM) | probe-labelled cysteine peptide fold change (50 µM)
1 | DNM1L_O00429_300_LLMHHIRDCLPELK (UniProt O00429) | -0.111 | -0.595
2 | DNAJB14_Q8TBM8_178_QYDLTGNEEQACNHQNNGR (UniProt Q8TBM8) | -0.197 | -0.277
3 | DIDO1_Q9BTC0_1449_MCADVR (UniProt Q9BTC0) | -0.296 | -0.358
4 | DICER1_Q9UPY3_443_EKPETNFPSPFTNILCGIIFVER (UniProt Q9UPY3) | 0.185 | 0.407
5 | DMXL1_Q9Y485_1352_CIAGEVVALNEAESNHER (UniProt Q9Y485) | 0.185 | -0.189

From the supplement of paper PMC12067093, “Discovery and optimisation of a covalent ligand for TRIM25 and its application to targeted protein ubiquitination” (Chemical Science, 2025)
